Paper PMC3506457
Results are given in words; binding and its absence hold for the method and conditions named. Binding seen in cells or lysates may run through a third protein. Some binding calls cover weakened binding; strength is not graded here.

Amino acid sequences for entries named in this document (tags omitted). Residues count along the entry.
UniProt Q13309: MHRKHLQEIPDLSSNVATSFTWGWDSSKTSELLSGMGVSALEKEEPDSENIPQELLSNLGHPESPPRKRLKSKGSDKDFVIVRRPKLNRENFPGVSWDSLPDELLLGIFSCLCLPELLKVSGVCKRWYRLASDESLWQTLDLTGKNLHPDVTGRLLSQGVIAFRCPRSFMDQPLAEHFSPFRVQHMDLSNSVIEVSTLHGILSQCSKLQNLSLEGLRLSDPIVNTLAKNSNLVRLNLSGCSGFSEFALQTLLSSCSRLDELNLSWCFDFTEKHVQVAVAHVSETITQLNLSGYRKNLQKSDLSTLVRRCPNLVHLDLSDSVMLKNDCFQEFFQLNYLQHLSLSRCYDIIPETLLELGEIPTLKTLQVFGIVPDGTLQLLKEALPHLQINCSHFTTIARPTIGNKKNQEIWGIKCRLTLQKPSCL
UniProt P29326, residues 20-660: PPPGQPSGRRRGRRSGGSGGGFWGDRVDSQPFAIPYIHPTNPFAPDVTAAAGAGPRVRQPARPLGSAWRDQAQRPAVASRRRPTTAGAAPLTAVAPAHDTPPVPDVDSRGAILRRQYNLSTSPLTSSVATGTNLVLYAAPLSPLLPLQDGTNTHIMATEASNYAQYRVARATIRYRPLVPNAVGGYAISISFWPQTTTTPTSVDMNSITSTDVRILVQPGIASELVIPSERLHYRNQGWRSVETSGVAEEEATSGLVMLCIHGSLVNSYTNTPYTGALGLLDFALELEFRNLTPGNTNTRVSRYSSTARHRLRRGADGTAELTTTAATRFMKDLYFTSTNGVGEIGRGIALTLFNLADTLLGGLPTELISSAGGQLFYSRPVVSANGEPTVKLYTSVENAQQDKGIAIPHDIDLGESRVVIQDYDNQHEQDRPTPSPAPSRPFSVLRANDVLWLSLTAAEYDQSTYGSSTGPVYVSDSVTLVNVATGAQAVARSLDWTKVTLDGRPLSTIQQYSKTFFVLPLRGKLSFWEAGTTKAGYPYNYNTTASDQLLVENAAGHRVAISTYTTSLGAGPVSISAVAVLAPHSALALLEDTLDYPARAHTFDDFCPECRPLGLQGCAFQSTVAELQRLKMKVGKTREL
UniProt P01106: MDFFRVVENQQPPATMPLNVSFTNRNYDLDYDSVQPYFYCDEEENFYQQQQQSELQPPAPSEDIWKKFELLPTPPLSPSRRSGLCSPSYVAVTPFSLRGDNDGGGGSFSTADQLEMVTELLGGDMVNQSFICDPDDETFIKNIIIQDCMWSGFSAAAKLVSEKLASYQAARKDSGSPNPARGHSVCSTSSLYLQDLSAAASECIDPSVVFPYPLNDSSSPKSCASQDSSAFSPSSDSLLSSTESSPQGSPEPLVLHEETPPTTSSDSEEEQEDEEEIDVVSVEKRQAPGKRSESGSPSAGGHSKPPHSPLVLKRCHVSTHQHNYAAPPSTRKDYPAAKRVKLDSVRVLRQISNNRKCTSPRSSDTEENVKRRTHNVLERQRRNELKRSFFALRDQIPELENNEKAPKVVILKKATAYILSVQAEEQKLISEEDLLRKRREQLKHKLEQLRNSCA
UniProt P63208: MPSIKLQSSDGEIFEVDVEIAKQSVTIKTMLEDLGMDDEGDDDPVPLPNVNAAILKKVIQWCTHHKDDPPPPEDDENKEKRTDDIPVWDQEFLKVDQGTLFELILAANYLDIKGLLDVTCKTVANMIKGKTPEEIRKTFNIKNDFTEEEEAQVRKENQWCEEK
UniProt Q9Y297: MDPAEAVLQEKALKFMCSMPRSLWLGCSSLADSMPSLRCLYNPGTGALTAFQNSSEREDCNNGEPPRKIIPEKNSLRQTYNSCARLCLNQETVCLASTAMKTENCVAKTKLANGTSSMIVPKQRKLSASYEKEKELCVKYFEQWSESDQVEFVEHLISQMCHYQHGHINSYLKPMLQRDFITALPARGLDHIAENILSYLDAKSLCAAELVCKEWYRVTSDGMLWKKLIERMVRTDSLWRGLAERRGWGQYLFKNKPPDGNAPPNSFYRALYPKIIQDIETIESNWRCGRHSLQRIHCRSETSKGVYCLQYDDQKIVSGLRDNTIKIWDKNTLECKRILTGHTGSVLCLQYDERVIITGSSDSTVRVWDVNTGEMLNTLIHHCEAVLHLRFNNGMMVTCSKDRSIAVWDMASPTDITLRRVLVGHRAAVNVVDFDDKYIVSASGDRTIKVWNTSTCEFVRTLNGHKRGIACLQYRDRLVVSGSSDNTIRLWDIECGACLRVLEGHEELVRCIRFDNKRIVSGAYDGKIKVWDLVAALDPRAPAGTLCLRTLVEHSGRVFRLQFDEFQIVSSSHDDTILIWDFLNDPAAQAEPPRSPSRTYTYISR
UniProt P25963: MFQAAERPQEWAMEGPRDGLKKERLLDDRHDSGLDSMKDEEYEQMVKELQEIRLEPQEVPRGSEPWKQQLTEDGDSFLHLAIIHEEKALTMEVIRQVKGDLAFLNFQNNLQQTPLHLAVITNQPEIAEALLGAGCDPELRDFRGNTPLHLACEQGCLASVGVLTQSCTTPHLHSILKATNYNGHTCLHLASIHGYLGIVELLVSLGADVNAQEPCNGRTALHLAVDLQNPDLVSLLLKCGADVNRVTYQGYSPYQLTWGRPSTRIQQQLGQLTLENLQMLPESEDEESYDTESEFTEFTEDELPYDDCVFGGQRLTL

Assays:
[1] = molecular target: SKP2 (F-box protein), endogenous (human (endogenous in Huh7)) (UniProt Q13309); assay: co-IP; Huh7 cells transfected with pSGI, ORF2 or c-Myc constructs; lysates immunoprecipitated with anti-SKP2 or anti-myc antibody, immunoblotted with anti-SKP2 or anti-Myc antibodies
[2] = molecular target: ORF2 protein of hepatitis E virus (full-length) (hepatitis E virus (strain not stated)) (UniProt P29326); assay: co-IP; Huh7 cells transfected with ORF2 (alone or with myc tagged full-length or ΔF-βTRCP), [35S]-cys/met labeled; lysates immunoprecipitated with anti-ORF2 antibody, immunoblotted with anti-IκBα, SKP1, CUL1, SKP2 or anti-Myc antibodies
[3] = molecular target: ORF2 protein of hepatitis E virus (full-length) (hepatitis E virus (strain not stated)) (UniProt P29326); assay: pull-down; ORF2 proteins immunoprecipitated from transfected Huh7 lysates with anti-ORF2 antibody, beads incubated with in vitro translated [35S]-cys/met labeled full-length βTRCP; bound βTRCP seen by autoradiography; only the target purified

binding [1]	Substance	binding [2]	also measured
binds	c-myc protein, overexpressed (pSGI c-myc) (from UniProt P01106 1-454)		
	SKP1 (from UniProt P63208 1-163)	no binding	
	myc tagged full-length beta transducin repeat containing protein (βTRCP) (from UniProt Q9Y297 1-605)	binds	
binds	c-myc protein, endogenous (from UniProt P01106 1-454)		
	in vitro translated [35S]-cys/met labeled full-length βTRCP protein (from UniProt Q9Y297 1-605)		binding [3]: binds
	I kappa B alpha (IκBα) (from UniProt P25963 1-317)	no binding	
